Data published in patent US20040121323, “Mrna binding motif” (published 2004).
Weaker means in comparison with the reference protein, sequence or condition of that experiment. Where a protein sequence is shown, tags need not be part of it.

Molecular target: T1, Grb14 SH2 domain (aa 426-540) (Homo sapiens) (UniProt Q14449)
T1 sequence (looked up): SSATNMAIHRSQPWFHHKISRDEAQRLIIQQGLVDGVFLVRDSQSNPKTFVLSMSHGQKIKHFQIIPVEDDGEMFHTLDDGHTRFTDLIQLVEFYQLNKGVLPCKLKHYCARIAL
Test: EMSA
Conditions: lower affinity; data not shown; purified recombinant protein; protein details: GST; label: 32P

GUAUAUGUGAGGAUUUUUAUUGAUUGGGGAUCUUGGAGUUUUUCAUUGUCGCUAUUGAUUUUUACUUCAUGGG [EGF-R 2/2A]
binding result: binds more weakly
